Measured values from patent US8470855B2, “Dual-use peptidase inhibitors as prodrugs for a therapy of inflammatory and other diseases” (IMTM GmbH, priority 2005, dated 2013).

Amino acid sequences for entries named in this document (tags omitted).
UniProt P22411, whole entry: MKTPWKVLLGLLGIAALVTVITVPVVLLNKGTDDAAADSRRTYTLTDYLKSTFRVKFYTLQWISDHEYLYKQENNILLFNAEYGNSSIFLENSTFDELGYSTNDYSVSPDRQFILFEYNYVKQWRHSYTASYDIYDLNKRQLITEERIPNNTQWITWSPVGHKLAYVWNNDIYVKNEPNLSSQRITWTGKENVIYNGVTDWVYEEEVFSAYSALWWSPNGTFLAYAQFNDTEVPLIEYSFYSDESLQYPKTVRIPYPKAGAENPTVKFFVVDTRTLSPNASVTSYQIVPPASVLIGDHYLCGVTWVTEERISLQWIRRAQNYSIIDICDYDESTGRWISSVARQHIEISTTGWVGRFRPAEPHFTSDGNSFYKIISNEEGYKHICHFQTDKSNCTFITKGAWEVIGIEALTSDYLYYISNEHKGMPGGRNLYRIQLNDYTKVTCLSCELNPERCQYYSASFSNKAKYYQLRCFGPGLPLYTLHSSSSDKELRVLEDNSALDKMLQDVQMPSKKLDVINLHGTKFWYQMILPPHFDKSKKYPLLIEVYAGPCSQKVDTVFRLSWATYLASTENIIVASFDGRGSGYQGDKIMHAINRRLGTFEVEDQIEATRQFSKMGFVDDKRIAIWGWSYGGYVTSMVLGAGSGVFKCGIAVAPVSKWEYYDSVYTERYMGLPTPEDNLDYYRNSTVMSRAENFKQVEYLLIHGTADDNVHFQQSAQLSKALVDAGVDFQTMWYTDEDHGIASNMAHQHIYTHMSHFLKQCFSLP
UniProt P15145, whole entry: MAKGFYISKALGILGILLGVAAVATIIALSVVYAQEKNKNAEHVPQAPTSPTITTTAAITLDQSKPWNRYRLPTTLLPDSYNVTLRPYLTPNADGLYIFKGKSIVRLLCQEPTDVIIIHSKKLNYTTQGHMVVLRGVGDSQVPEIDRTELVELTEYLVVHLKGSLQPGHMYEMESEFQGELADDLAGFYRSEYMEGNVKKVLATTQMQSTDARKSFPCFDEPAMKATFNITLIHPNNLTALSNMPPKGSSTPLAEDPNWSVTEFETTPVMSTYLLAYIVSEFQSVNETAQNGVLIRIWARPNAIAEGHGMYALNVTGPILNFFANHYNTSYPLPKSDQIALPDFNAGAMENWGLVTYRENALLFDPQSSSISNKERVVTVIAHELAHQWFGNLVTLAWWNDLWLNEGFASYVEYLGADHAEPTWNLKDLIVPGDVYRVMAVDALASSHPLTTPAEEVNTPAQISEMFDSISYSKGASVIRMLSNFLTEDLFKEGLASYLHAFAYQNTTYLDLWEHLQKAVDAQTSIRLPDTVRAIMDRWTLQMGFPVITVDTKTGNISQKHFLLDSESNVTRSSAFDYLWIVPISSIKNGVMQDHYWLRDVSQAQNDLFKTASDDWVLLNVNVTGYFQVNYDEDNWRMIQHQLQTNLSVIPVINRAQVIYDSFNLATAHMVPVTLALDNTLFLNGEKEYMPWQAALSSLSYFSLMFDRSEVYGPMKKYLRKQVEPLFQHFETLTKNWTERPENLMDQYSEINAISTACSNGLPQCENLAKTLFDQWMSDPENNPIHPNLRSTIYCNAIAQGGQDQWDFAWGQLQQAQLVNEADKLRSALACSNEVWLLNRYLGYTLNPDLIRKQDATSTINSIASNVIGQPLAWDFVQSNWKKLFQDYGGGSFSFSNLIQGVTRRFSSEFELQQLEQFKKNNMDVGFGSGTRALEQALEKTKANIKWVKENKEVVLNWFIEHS

What was measured:
[1] = molecular target: Dipeptidyl peptidase IV (EC 3.4.14.5.) (Sus scrofa, UniProt P22411); test: IC50 determination against DP IV after reduction of the prodrugs with DTT; details: read-out: DP IV (IC 50 [M]); after release (reduction with DTT) of the inhibitors from the prodrugs; pig kidney enzyme, substrate Ala-Pro-AMC, pH 7.6, 30° C.
Procedure: (§1) Process of the Reduction with DTT:
(§2) Same volumes of the 7·10^−2 M solution of the inhibitor in water or DMF and a 0.35 M aqueous DTT-solution (5 equivalents) were agitated 4 hours at RT.
(§3) Subsequently to the reductive treatment of the prodrugs the IC50-values were estimated using the following process:
(§4) Determination of the IC50-Values after Reduction:
Dipeptidyl peptidase IV from pig kidney (EC 3.4.14.5.), lyophilisated powder (Sigma).
Substrate: Ala-Pro-AMC, [S]=3·10^−5 M (2 Km) in the reaction batch.
Buffer: 40 mM Tris/HCl-buffer, pH 7.6, I=0.125 in the reaction batch.
By dilution with water 10 to 12 solutions with defined inhibitor concentration were prepared from the reduction batch. These were selected from a relevant concentration range, i.e. between complete inhibition and non-influenced enzyme activity.
60 μl of these inhibitor solutions each or water (standard), were incubated with 80 μl of the according diluted enzymes in buffer for 15 minutes at 30° C. and subsequently 60 μl of the according AMC-substrate in water (total volume 200 μl) were added. The release of the 7-Amino-4-methyl-cumarin was traced continuously over a period of 20 minutes at 30° C. using a fluorence-pladt-reader NOVOstar (BMG Labtechnologies). The enzyme concentration was chosen to give a linear increase of the fluorescence during the measuring period. […]

[2] = molecular target: APN (Leucin aminopeptidase, microsomal, EC 3.4.11.2) (Sus scrofa, UniProt P15145); test: IC50 determination against APN after reduction of the prodrugs with DTT; details: read-out: APN (IC 50 [M]); after release (reduction with DTT) of the inhibitors from the prodrugs; pig kidney enzyme, substrate Leu-AMC, pH 7.2, 30° C.
Procedure: as §1, §2, §3, §4
Leucin aminopeptidase, microsomal, from pig kidney (EC 3.4.11.2).
Suspension in 3.5 M (NH4)2SO4-solution (Sigma).
Substrate: Leu-AMC, [S]=1.5·10^−4 M (2 Km) in the reaction batch.
Buffer: 40 mM Tris/HCl-buffer, pH 7.2 in the reaction batch. […]
60 μl of these inhibitor solutions each or water (standard), were incubated with 80 μl of the according diluted enzymes in buffer for 15 minutes at 30° C. and subsequently 60 μl of the according AMC-substrate in water (total volume 200 μl) were added. The release of the 7-Amino-4-methyl-cumarin was traced continuously over a period of 20 minutes at 30° C. using a fluorence-pladt-reader NOVOstar (BMG Labtechnologies). The enzyme concentration was chosen to give a linear increase of the fluorescence during the measuring period.
The excitation- and emission-wavelengths, respectively, were 390 and 460 nm. […] The turn-over rates (increase of fluorescence/minutes) were plotted against the concentration of the inhibitor and the IC50-values were calculated using the computer program GraFit. […]

For `NC(CSSc1ccc(C(=O)NCCCC[C@H](N)C(=O)N2CCSC2)cn1)Cc1ccccc1` (some centres unmarked), the IC50 [1] was 1.25e-07 M and the IC50 [2] was 1.33e-07 M.

Structures were worked out from names or drawings and are uncertain.
